Assay [1] addresses Insulin Responsive AminoPeptidase (IRAP) (human (endogenous in Jurkat)) (UniProt Q9UIQ6). In words: co-IP; IRAP immunoprecipitated with rabbit anti-IRAP bound on Dynabeads Protein G from Jurkat T cell lysates (wt cells, or IRAP ko cells reconstituted with IRAP E465A or IRAP 3CA); lysis in 50 mM Tris, 150 mM NaCl, 1% CHAPS with protease and phosphatase inhibitors; immunoblot. (In western blotting, separated proteins are transferred to a membrane and probed.)

Amino acid sequences for entries named in this document (tags omitted).
UniProt P06239: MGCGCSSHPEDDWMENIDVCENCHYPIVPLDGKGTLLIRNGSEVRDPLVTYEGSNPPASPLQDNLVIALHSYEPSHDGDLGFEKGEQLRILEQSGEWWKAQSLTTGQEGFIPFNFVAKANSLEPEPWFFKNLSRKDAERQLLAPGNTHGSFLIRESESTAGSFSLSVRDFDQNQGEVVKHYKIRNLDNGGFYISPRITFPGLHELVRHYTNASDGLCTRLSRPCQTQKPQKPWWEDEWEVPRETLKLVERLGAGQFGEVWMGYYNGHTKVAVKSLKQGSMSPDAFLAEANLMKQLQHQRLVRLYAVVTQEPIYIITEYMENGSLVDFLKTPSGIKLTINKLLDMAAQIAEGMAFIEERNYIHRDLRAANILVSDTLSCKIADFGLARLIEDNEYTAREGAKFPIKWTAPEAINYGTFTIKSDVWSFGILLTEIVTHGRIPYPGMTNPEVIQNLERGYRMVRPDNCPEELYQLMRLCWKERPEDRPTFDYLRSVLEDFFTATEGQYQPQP

For the next assay, the target named is T1, IRAP 3CA (mouse) (UniProt Q8C129).
T1 sequence: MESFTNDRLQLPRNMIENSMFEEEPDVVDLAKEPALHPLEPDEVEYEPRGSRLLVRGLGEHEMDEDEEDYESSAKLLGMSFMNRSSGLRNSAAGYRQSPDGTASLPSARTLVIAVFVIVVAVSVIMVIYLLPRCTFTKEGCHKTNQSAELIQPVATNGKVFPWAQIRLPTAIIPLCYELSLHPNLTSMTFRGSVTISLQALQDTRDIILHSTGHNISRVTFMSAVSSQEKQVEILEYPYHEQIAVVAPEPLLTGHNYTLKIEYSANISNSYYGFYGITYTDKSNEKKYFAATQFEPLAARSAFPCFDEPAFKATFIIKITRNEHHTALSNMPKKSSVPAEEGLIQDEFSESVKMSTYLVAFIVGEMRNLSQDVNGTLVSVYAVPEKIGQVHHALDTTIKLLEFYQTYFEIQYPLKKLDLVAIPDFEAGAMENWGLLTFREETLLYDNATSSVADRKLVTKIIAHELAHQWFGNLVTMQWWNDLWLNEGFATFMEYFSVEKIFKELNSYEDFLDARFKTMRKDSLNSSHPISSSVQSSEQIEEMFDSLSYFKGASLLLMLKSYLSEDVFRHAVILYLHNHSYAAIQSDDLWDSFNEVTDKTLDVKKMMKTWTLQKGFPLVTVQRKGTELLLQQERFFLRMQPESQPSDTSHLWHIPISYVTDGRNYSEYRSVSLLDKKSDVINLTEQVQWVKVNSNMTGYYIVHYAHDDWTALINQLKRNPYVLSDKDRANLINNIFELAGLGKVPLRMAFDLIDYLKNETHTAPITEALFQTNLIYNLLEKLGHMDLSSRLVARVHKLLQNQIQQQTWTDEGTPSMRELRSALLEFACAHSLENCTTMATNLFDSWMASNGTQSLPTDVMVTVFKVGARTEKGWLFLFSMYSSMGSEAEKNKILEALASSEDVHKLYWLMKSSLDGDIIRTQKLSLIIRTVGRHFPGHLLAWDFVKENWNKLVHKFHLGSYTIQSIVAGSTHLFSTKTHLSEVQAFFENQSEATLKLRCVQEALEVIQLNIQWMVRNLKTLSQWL
The description is as above.

These are yes or no findings as the source states them, for the method shown. Binding seen in cells or lysates may run through a third protein. Some results given as binding are weak or reduced against the parent protein; the word gives no strength.

As to “lymphocyte-specific protein tyrosine kinase (Lck) (from UniProt P06239 1-509) (enzyme)”, the binding result in assay [1] was “binds”.
As to “T-cell receptor ζ chain (CD3ζ) (from UniProt P20963-1 22-164)”, the binding result is “no binding” in the assay with IRAP 3CA (mouse) and “binds” in assay [1].

Values taken from paper PMC7265453.
